According to paper PMC10835844:
No constants are given. Whether binding was seen depends on the method and setting. In cells and extracts the contact can be indirect. Here binding means that the protein was enriched with, or labelled near, the bait; the list need not be complete.

Amino acid sequences for entries named in this document (tags omitted).
UniProt Q14258: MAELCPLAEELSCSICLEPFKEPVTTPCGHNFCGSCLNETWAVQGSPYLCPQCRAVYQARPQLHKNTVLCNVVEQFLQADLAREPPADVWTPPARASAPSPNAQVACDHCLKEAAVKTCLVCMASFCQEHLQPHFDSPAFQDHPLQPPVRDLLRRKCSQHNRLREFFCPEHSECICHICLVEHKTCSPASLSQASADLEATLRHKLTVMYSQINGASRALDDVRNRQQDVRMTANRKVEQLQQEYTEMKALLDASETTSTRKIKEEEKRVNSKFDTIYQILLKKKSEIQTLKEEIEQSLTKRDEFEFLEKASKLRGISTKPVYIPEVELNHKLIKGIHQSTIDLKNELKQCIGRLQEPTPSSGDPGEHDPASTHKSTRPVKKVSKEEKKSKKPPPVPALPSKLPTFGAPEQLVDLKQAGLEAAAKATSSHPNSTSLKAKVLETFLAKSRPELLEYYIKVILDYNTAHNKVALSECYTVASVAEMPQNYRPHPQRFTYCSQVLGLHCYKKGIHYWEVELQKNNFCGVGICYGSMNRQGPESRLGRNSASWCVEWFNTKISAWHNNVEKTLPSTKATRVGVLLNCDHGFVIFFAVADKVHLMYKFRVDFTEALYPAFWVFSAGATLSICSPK

Biological target: Tripartite motif 25 (TRIM25), endogenous (human (endogenous in LN229 and U251)) (UniProt Q14258)
Experiment: affinity purification with mass spectrometry; immunoprecipitation with a TRIM25-specific antibody on protein A/G magnetic beads from LN229 and U251 lysates (IP lysis buffer, overnight at 4 °C), LC-MS/MS; proteins found in the IgG groups excluded

binding: binds
B1: NONO (Non-POU domain containing octamer binding), endogenous (protein, UniProt Q15233 1-471)
chain: MQSNKTFNLEKQNHTPRKHHQHHHQQQHHQQQQQQPPPPPIPANGQQASSQNEGLTIDLKNFRKPGEKTFTQRSRLFVGNLPPDITEEEMRKLFEKYGKAGEVFIHKDKGFGFIRLETRTLAEIAKVELDNMPLRGKQLRVRFACHSASLTVRNLPQYVSNELLEEAFSVFGQVERAVVIVDDRGRPSGKGIVEFSGKPAARKALDRCSEGSFLLTTFPRPVTVEPMDQLDDEEGLPEKLVIKNQQFHKEREQPPRFAQPGSFEYEYAMRWKALIEMEKQQQDQVDRNIKEAREKLEMEMEAARHEHQVMLMRQDLMRRQEELRRMEELHNQEVQKRKQLELRQEEERRRREEEMRRQQEEMMRRQQEGFKGTFPDAREQEIRMGQMAMGGAMGINNRGAMPPAPVPAGTPAPPGPATMMPDGTLGLTPPTTERFGQAATMEGIGAIGGTPPAFNRAAPGAEFAPNKRRRY
